The nature of this data set: in vitro. The settings on record: human, Caco-2.

The term Papp A→B denotes how fast a substance crosses the layer from the apical side. A higher Papp A→B goes with fast passage.

Structures are written as SMILES.

In turn, `C=CC(=O)N1CCC([C@@H]2CCNc3c(C(N)=O)c(-c4cc(OC)c(C)c(OC)c4)nn32)CC1` displayed a Papp A→B at 2 h, 10 µM of 5.4 ×10⁻⁶ cm/s.

The values are drawn from ChEMBL document CHEMBL5247657 (J Med Chem, 2023).
